The source of these data is paper PMC4467123.

No constants are given. Whether binding was seen depends on the method and setting. Binding seen in cells or lysates may run through a third protein. Some binding calls cover weakened binding; strength is not graded here. Where a sequence is shown, tags or fusion partners need not be part of it.

The experiment concerns the target T1, Flag-tagged N-myc (and STAT) interactor (NMI) (human), Q13287.
T1 chain: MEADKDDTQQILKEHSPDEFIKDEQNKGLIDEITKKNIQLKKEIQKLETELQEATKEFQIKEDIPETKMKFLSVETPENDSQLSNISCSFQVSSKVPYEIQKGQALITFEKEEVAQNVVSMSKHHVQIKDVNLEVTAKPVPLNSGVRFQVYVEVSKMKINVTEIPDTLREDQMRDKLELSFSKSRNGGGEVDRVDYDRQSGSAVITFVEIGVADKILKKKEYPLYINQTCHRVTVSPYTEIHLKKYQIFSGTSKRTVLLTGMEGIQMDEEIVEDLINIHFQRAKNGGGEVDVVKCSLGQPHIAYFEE
Kind of experiment: co-IP; U251 cells stably overexpressing Flag-tagged NMI and STAT1 (α or β) via lentivirus; NP-40 lysis buffer (50 mM Tris-HCl pH 7.5, 150 mM NaCl, 1% NP-40); anti-Flag M2 magnetic beads overnight at 4°C, four washes; blot with STAT1 antibody. Conditions: remark: other sources report otherwise.

B1: STAT1α (STAT1 isoform α, transcript variant V1), P42224 1-750 (protein)
chain: MSQWYELQQLDSKFLEQVHQLYDDSFPMEIRQYLAQWLEKQDWEHAANDVSFATIRFHDLLSQLDDQYSRFSLENNFLLQHNIRKSKRNLQDNFQEDPIQMSMIIYSCLKEERKILENAQRFNQAQSGNIQSTVMLDKQKELDSKVRNVKDKVMCIEHEIKSLEDLQDEYDFKCKTLQNREHETNGVAKSDQKQEQLLLKKMYLMLDNKRKEVVHKIIELLNVTELTQNALINDELVEWKRRQQSACIGGPPNACLDQLQNWFTIVAESLQQVRQQLKKLEELEQKYTYEHDPITKNKQVLWDRTFSLFQQLIQSSFVVERQPCMPTHPQRPLVLKTGVQFTVKLRLLVKLQELNYNLKVKVLFDKDVNERNTVKGFRKFNILGTHTKVMNMEESTNGSLAAEFRHLQLKEQKNAGTRTNEGPLIVTEELHSLSFETQLCQPGLVIDLETTSLPVVVISNVSQLPSGWASILWYNMLVAEPRNLSFFLTPPCARWAQLSEVLSWQFSSVTKRGLNVDQLNMLGEKLLGPNASPDGLIPWTRFCKENINDKNFPFWLWIESILELIKKHLLPLWNDGCIMGFISKERERALLKDQQPGTFLLRFSESSREGAITFTWVERSQNGGEPDFHAVEPYTKKELSAVTFPDIIRNYKVMAAENIPENPLKYLYPNIDKDHAFGKYYSRPKEAPEPMELDGPKGTGYIKTELISVSEVHPSRLQTTDNLLPMSPEEFDEVSRIVGSVEFDSMMNTV
For B1, the binding entry was “binds”.
